# Experimental data taken from the supplement of paper PMC12819154, “High-throughput peptide-centric local stability assay extends protein–ligand identification to membrane proteins, tissues and bacteria” (Nature Structural & Molecular Biology, 2025).
# Sequences of proteins named here, by UniProt entry; tags and fusion partners are left off. A change or cut given only in a name is not applied to a line headed by its entry.
# UniProt P0C0S5, whole entry: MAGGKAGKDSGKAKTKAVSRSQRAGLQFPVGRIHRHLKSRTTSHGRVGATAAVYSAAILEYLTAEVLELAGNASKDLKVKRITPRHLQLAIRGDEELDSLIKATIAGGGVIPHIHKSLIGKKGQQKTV
# UniProt P12004, whole entry: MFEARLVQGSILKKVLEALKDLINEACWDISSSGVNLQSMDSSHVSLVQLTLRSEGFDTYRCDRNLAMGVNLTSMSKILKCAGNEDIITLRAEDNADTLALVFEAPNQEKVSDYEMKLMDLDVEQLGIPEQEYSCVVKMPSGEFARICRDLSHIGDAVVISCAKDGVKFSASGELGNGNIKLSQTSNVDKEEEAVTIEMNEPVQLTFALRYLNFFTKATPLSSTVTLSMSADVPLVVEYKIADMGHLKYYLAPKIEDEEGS
# UniProt P08236: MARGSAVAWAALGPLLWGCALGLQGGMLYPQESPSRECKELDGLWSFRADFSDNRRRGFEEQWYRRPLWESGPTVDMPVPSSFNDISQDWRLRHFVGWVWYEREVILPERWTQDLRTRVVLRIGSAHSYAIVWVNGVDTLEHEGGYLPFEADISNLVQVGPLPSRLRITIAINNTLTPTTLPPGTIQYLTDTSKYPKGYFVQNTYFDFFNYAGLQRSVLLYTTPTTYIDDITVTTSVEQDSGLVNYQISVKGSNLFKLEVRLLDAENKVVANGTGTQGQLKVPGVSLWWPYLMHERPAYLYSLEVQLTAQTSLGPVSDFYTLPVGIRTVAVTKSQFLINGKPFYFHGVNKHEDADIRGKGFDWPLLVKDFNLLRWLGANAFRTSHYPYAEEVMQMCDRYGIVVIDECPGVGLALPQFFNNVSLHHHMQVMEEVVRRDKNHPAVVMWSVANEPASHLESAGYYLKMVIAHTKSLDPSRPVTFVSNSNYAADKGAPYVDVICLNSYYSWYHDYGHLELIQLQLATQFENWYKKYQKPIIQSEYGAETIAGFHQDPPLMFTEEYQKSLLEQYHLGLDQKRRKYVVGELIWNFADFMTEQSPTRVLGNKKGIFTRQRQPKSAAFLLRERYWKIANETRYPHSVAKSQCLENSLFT
# UniProt P13994: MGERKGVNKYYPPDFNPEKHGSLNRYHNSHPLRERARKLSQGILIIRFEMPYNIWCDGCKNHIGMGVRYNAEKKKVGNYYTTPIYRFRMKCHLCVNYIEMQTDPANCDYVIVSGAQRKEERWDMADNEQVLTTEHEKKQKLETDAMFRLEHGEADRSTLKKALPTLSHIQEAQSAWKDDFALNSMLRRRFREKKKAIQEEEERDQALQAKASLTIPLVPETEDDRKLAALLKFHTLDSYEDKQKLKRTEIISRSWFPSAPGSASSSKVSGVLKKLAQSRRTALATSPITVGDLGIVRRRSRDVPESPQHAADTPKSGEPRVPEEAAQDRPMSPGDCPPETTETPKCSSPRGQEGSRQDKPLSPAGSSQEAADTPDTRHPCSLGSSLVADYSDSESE
# UniProt P07602: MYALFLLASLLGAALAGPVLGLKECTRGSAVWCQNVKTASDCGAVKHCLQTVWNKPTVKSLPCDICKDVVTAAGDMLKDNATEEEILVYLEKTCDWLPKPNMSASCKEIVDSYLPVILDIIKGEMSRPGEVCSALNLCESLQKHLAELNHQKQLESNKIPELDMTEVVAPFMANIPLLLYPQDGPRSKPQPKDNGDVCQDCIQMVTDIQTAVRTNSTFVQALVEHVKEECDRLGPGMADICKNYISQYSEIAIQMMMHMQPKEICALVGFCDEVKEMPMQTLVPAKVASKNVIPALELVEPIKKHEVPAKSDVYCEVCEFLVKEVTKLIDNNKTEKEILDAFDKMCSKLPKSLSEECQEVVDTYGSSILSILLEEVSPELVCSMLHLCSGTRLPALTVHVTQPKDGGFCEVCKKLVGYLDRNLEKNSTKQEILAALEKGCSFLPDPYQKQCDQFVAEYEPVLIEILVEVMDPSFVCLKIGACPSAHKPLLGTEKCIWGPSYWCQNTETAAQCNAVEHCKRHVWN
# UniProt P09543: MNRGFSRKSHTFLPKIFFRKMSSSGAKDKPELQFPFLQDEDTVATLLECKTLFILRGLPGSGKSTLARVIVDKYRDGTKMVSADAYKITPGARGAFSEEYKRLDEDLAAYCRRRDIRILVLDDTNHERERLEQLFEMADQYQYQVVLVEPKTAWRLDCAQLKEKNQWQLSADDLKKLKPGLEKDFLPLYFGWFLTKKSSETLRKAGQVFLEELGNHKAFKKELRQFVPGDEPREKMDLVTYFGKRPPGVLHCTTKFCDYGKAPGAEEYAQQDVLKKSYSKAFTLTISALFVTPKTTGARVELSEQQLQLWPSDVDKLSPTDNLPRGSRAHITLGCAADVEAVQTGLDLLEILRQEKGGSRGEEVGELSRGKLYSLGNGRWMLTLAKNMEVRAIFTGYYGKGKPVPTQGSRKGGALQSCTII
# UniProt P08237: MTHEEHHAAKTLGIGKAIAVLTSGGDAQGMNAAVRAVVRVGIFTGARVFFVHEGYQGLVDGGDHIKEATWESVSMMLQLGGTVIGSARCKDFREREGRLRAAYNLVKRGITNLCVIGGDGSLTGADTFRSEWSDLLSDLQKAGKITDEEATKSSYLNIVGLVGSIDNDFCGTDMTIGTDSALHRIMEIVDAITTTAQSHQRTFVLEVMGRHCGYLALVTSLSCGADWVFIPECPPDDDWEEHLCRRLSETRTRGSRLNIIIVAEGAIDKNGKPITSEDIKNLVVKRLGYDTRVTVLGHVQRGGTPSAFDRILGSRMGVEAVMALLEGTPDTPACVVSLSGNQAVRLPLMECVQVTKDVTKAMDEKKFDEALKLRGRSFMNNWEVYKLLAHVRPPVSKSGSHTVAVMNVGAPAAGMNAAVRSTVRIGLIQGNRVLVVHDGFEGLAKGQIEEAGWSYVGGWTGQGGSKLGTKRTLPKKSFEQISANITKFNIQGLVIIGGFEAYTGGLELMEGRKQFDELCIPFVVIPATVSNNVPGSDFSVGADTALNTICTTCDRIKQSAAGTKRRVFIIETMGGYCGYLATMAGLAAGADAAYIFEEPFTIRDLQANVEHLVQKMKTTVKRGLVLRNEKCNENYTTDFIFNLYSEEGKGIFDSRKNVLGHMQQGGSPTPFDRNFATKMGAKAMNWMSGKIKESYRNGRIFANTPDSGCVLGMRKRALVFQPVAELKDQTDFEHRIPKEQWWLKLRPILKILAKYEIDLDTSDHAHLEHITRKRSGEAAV
# UniProt P08651, whole entry: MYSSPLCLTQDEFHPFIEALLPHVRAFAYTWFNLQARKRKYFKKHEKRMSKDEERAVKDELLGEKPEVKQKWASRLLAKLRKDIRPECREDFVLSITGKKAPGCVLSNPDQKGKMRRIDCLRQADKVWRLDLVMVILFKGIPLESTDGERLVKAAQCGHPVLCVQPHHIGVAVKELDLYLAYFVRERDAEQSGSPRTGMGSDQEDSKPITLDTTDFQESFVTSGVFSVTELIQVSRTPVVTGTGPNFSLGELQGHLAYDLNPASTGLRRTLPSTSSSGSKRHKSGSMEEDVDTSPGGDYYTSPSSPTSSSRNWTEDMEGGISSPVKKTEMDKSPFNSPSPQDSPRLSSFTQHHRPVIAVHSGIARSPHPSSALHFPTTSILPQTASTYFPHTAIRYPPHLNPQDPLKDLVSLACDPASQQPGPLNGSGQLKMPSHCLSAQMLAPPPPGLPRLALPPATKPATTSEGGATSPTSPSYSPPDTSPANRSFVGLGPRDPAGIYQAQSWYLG
# UniProt P0C6C1: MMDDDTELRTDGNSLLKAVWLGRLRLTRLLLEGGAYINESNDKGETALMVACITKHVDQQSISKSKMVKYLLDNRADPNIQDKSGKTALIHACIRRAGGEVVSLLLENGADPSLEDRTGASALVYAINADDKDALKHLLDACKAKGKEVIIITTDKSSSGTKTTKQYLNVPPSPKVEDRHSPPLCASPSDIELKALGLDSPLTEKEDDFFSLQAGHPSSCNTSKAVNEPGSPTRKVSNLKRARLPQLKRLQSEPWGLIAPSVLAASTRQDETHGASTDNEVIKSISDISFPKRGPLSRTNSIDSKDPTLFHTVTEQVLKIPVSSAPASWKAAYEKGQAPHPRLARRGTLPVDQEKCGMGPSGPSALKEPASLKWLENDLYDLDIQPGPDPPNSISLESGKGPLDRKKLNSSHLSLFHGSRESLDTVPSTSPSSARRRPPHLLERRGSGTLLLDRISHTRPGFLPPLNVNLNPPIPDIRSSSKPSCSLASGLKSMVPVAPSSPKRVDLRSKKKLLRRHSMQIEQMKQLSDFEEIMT
# UniProt P01718, whole entry: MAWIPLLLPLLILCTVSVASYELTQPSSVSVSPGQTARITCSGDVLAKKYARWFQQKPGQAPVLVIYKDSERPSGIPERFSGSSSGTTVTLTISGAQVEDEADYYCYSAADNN
# UniProt P12236: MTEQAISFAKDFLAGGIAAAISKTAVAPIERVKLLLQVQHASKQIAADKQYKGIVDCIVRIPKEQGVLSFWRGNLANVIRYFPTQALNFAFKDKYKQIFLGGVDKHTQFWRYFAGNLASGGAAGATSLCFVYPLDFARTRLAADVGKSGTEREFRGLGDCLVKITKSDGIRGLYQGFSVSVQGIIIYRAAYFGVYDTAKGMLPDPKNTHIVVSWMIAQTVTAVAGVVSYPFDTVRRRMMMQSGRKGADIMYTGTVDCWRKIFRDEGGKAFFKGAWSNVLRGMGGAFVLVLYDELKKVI
# UniProt P05166: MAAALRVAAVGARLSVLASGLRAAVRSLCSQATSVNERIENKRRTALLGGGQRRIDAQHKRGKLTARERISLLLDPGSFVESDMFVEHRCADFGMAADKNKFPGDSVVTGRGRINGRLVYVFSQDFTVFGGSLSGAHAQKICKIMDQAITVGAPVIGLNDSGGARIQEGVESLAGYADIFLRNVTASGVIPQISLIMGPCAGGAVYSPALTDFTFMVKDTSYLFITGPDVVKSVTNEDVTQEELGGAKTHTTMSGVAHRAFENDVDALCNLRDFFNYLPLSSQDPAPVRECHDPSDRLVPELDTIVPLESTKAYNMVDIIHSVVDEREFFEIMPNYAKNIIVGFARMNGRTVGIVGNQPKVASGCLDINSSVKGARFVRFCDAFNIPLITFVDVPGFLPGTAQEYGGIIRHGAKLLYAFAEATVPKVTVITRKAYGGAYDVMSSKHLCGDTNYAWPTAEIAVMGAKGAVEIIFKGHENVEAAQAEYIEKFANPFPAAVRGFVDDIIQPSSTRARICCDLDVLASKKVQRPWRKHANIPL
# UniProt P0DMU9: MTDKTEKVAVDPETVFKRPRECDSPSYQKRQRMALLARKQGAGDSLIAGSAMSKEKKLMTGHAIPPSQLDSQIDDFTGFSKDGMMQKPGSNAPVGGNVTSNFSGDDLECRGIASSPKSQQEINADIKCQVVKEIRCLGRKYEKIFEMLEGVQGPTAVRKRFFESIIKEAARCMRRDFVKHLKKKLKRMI
# UniProt P09497: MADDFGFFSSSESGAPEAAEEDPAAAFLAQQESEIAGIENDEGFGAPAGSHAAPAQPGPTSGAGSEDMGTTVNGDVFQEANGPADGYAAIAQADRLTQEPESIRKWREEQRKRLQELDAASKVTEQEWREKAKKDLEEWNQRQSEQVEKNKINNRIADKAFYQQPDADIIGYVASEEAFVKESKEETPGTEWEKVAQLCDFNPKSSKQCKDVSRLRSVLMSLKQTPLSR
# UniProt P09874, whole entry: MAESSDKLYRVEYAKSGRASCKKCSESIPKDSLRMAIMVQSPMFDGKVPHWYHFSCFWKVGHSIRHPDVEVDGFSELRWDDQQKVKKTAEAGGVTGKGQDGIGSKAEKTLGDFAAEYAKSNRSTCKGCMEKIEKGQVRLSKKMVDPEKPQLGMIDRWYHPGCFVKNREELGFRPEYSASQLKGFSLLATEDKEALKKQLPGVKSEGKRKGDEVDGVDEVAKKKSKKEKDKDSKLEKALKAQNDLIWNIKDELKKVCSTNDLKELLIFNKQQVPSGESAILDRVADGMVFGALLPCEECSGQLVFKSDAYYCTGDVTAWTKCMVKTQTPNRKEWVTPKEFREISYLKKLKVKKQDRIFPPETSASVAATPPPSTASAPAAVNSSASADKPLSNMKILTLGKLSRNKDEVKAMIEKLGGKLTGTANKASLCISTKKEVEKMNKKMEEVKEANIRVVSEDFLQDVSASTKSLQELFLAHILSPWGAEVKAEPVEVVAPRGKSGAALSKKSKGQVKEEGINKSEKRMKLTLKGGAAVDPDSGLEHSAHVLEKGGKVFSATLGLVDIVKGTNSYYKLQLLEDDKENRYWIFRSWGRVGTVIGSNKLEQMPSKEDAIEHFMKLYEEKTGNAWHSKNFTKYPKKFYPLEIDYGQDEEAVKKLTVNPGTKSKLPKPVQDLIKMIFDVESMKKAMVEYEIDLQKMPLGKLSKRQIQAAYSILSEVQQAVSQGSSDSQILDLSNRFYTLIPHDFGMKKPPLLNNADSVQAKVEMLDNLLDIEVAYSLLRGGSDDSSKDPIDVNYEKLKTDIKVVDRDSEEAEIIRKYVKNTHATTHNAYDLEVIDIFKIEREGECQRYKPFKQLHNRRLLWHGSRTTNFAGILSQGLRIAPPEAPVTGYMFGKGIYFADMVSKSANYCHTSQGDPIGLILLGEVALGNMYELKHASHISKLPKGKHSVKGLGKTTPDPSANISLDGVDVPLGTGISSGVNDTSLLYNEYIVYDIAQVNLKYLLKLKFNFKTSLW
# This is one part of the list. Small differences around the control level are noise.
# Compound: Cc1nc(Nc2ncc(C(=O)Nc3c(C)cccc3Cl)s2)cc(N2CCN(CCO)CC2)n1 [dasatinib]
# Assay: log2 fold change of tryptic peptide abundance, ligand vs vehicle (limited proteolysis) (log2 ratio); higher = more trypsin-susceptible (destabilized)
# Conditions: ligand concentration: 5 uM; sample: K562 cleared lysate
row,Target,log2 fold change
1,"ERCC1 (peptide sequence: VTECLTTVK, peptide start residue: 235) (UniProt P07992)",0.073
2,"CYBA (peptide sequence: ERPQIGGTIK, peptide start residue: 140) (UniProt P13498)",0.0952
3,"PRKAR2A (peptide sequence: IVDVIGEKIYKDGER, peptide start residue: 273) (UniProt P13861)",0.189
4,"SKI (peptide sequence: YSAQIEDLQVK, peptide start residue: 663) (UniProt P12755)",0.414
5,"UniProt P0C0S5 (peptide sequence: GDEELDSLIK, peptide start residue: 93)",0.053
6,"GYS1 (peptide sequence: VGGIYTVLQTK, peptide start residue: 40) (UniProt P13807)",-0.389
7,"PCNA (peptide sequence: DLSHIGDAVVISCAK, peptide start residue: 150) (UniProt P12004)",0.0913
8,"UniProt P0C0S8 (peptide sequence: AGLQFPVGRVHR, peptide start residue: 22)",0.102
9,"GUSB (peptide sequence: WLGANAFR, peptide start residue: 375) (UniProt P08236)",-0.11
10,"PRKCB (peptide sequence: KDVVIQDDDVECTMVEKR, peptide start residue: 375) (UniProt P05771)",0.263
11,"RAF1 (peptide sequence: DQIIFMVGR, peptide start residue: 516) (UniProt P04049)",0.33
12,"EPB41 (peptide sequence: EGEGLEECSKIEVK, peptide start residue: 172) (UniProt P11171)",0.338
13,"CCDC130 (peptide sequence: YYPPDFNPEK, peptide start residue: 10) (UniProt P13994)",0.154
14,"PSAP (peptide sequence: GSAVWCQNVK, peptide start residue: 28) (UniProt P07602)",0.0736
15,"RPLP0 (peptide sequence: GHLENNPALEK, peptide start residue: 67) (UniProt P05388)",-0.128
16,"HARS (peptide sequence: VFDVIIR, peptide start residue: 76) (UniProt P12081)",-0.269
17,"CNP (peptide sequence: EKNQWQLSADDLK, peptide start residue: 163) (UniProt P09543)",-0.187
18,"PFKM (peptide sequence: VLVVHDGFEGLAK, peptide start residue: 433) (UniProt P08237)",0.289

row,Target,log2 fold change
1,"PDHA1 (peptide sequence: VDGMDILCVR, peptide start residue: 254) (UniProt P08559)",0.192
2,"AHSG (peptide sequence: CDSSPDSAEDVR, peptide start residue: 132) (UniProt P02765)",0.12
3,"NFIC (peptide sequence: AVKDELLGEKPEVK, peptide start residue: 56) (UniProt P08651)",0.315
4,"GNAI3 (peptide sequence: EIYTHFTCATDTK, peptide start residue: 318) (UniProt P08754)",-0.297
5,"UniProt P0C6C1 (peptide sequence: SISDISFPK, peptide start residue: 284)",0.068
6,"UniProt P01718 (peptide sequence: KYARWFQQK, peptide start residue: 49)",0.289
7,"SLC25A6 (peptide sequence: GLGDCLVK, peptide start residue: 156) (UniProt P12236)",-0.129
8,"PCCB (peptide sequence: ICCDLDVLASK, peptide start residue: 515) (UniProt P05166)",0.257
9,"ACTN1 (peptide sequence: LSNRPAFMPSEGR, peptide start residue: 347) (UniProt P12814)",0.242
10,"CT45A10 (peptide sequence: SQQEINADIKCQVVK, peptide start residue: 118) (UniProt P0DMU9)",0.0889
11,"NPM1 (peptide sequence: TPKGPSSVEDIK, peptide start residue: 237) (UniProt P06748)",-0.4
12,"CLTB (peptide sequence: VTEQEWR, peptide start residue: 123) (UniProt P09497)",0.0986
13,"ADH5 (peptide sequence: AFELMHSGK, peptide start residue: 358) (UniProt P11766)",-0.241
14,"IMPDH2 (peptide sequence: HGFCGIPITDTGRMGSR, peptide start residue: 137) (UniProt P12268)",0.546
15,"SSB (peptide sequence: DANNGNLQLR, peptide start residue: 288) (UniProt P05455)",0.111
16,"S100A6 (peptide sequence: EGDKHTLSKK, peptide start residue: 23) (UniProt P06703)",0.738
17,"QDPR (peptide sequence: NRPSSGSLIQVVTTEGR, peptide start residue: 220) (UniProt P09417)",-0.324
18,"PARP1 (peptide sequence: KMVDPEKPQLGMIDR, peptide start residue: 142) (UniProt P09874)",-0.742

# 2 records picked at random from the list so far:
row,Target,log2 fold change
15,"SSB (peptide sequence: DANNGNLQLR, peptide start residue: 288) (UniProt P05455)",0.111
6,"UniProt P01718 (peptide sequence: KYARWFQQK, peptide start residue: 49)",0.289
